Source: the supplement of paper PMC10849652
The other results are listed elsewhere or left out.

Chains of the proteins cited; added tags and fusions are not shown. Lines headed by an entry give the natural chain unless they say otherwise; changes in a name come on top.
UniProt Q86WQ0: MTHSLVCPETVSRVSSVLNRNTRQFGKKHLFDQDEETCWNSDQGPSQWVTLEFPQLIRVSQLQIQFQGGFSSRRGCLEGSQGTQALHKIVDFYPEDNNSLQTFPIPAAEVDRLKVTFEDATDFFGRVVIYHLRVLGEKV
UniProt Q9H3P2, whole entry, looked up: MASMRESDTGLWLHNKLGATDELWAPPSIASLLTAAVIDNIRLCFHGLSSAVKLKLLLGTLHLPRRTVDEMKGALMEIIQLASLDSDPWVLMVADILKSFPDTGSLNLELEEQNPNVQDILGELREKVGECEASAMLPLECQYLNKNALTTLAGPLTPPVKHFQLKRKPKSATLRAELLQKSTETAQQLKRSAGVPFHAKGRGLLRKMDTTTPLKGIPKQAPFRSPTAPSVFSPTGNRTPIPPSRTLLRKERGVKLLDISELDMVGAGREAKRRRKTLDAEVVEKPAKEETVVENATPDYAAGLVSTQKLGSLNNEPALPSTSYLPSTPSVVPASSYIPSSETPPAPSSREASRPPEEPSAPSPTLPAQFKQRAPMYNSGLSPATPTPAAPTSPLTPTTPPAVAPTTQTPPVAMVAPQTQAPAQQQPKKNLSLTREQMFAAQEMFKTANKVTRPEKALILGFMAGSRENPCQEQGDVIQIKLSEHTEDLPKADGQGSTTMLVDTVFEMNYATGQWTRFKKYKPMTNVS
UniProt Q13469: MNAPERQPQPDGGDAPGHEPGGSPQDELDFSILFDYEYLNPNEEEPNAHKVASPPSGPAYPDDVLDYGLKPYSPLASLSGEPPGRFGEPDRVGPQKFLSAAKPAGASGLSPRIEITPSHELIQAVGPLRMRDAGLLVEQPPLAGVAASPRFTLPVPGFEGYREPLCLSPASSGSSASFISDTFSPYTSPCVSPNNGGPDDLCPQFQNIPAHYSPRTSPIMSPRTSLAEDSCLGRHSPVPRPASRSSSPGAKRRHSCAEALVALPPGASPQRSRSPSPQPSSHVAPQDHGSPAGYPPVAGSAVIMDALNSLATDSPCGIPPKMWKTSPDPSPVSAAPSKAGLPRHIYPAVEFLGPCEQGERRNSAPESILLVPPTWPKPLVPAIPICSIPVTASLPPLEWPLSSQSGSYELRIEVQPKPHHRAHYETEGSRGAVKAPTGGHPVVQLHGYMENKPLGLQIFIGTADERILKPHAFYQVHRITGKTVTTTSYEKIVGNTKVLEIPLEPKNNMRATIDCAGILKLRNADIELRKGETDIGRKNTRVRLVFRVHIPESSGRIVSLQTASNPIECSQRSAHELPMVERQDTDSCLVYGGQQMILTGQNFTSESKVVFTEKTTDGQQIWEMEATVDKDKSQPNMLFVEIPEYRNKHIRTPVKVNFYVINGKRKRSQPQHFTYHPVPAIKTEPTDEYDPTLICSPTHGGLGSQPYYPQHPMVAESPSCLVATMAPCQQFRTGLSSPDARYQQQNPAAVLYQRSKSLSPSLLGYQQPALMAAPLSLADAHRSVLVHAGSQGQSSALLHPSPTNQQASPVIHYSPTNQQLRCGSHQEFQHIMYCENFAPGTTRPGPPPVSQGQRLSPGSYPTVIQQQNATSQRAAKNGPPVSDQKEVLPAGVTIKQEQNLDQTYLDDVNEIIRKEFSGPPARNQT
UniProt Q8NBF2: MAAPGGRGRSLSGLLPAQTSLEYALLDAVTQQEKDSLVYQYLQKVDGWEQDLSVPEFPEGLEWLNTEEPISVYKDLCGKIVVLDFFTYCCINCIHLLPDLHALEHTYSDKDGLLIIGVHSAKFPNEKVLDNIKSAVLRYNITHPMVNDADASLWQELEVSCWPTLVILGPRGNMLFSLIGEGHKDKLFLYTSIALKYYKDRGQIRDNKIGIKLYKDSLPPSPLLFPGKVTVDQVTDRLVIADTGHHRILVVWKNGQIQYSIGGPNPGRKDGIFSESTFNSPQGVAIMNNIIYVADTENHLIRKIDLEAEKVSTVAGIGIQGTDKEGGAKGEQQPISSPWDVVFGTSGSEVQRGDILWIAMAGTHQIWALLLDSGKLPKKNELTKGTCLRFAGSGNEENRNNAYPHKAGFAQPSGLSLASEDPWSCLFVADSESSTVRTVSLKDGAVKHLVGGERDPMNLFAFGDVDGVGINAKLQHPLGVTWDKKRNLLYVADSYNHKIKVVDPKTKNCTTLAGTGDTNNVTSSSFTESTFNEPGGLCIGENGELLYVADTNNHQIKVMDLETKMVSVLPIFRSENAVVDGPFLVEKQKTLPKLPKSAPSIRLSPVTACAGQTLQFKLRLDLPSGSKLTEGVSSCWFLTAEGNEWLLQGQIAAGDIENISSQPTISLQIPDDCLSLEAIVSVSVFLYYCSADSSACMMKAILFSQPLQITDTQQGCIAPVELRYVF
UniProt Q96L73: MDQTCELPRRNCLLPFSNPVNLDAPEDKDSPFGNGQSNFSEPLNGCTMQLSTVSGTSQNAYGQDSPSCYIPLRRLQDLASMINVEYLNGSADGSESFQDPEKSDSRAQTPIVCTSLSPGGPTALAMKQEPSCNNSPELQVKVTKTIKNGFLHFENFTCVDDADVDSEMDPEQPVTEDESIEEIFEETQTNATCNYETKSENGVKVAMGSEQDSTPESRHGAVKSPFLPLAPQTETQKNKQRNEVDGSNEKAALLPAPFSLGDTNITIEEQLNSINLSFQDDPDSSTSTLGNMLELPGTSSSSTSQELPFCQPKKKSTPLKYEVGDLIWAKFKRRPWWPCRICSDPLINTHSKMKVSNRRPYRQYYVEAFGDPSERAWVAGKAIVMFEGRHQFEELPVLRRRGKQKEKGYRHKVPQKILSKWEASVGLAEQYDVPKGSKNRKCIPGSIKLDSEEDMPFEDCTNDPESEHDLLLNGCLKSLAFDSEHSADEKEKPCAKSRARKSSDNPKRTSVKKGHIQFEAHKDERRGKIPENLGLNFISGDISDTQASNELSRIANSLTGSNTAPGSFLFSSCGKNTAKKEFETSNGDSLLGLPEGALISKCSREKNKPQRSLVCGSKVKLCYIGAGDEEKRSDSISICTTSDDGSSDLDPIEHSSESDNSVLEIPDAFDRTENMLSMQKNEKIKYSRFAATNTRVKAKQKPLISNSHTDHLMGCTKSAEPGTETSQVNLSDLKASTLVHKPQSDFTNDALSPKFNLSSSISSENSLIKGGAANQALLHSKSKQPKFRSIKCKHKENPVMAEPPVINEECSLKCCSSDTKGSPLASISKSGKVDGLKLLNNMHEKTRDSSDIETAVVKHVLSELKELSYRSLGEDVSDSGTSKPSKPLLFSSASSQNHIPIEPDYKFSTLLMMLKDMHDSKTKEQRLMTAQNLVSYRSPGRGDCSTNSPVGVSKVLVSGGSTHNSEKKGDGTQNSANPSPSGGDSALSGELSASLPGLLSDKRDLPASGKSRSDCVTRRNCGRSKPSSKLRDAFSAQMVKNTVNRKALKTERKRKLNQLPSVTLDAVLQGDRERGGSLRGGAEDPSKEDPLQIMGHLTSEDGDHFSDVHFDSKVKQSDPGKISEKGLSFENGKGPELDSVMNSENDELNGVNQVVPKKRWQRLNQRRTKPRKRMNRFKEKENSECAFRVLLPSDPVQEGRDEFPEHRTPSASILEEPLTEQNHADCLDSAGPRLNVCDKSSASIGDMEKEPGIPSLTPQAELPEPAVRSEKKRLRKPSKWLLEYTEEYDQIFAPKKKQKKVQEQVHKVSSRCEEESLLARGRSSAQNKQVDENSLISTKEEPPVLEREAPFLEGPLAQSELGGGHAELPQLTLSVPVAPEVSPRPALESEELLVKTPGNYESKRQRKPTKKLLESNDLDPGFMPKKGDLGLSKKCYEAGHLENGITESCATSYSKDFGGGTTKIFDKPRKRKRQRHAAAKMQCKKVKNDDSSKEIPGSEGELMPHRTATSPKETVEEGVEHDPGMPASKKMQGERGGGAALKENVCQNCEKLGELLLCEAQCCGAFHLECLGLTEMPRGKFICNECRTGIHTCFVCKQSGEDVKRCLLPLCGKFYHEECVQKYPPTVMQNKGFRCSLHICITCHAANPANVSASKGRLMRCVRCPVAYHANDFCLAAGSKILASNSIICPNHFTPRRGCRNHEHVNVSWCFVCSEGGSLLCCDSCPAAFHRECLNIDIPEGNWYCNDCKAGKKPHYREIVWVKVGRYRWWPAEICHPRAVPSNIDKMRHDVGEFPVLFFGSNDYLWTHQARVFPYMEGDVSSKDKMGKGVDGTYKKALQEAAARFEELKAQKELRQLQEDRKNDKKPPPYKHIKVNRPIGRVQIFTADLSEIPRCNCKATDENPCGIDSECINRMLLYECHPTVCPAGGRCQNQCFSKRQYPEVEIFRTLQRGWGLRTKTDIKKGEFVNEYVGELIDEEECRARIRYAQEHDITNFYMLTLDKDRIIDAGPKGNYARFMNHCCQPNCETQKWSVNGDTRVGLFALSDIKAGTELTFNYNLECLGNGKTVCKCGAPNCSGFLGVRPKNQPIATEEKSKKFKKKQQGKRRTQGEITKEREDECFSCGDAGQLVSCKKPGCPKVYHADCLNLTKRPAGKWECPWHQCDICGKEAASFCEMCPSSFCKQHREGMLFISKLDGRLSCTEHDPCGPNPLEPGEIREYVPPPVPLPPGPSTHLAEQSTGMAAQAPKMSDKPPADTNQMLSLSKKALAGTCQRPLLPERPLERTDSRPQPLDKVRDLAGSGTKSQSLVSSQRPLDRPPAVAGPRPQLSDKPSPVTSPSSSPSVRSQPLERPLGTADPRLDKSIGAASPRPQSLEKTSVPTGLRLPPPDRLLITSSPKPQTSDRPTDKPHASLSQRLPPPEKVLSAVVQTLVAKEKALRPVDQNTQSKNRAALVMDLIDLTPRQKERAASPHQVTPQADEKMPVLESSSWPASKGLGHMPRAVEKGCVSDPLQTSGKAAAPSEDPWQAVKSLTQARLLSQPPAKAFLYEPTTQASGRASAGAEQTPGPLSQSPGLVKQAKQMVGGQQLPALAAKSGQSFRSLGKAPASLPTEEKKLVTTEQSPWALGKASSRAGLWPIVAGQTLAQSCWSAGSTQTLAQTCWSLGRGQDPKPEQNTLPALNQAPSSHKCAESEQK
UniProt Q9Y314: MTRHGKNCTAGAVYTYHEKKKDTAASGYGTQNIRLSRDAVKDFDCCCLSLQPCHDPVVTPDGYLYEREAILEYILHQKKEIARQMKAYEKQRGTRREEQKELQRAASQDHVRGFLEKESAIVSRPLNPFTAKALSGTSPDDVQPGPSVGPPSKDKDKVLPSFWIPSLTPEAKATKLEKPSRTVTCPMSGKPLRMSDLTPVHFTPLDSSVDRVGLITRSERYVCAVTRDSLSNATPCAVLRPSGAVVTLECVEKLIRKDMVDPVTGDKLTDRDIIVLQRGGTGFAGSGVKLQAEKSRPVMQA
UniProt Q16656: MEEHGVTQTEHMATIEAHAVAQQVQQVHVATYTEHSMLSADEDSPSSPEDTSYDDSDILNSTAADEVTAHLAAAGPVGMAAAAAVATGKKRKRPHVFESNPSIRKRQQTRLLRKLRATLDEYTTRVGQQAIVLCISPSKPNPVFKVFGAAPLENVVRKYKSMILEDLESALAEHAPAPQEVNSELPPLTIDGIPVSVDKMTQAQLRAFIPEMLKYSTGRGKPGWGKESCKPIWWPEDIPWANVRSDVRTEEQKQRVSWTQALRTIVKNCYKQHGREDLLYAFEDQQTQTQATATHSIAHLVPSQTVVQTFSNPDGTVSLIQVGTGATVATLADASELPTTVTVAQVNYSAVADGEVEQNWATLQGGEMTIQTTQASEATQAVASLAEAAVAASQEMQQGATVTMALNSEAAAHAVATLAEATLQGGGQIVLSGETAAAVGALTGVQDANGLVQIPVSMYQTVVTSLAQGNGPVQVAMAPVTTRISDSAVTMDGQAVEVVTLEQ
UniProt Q96MY1: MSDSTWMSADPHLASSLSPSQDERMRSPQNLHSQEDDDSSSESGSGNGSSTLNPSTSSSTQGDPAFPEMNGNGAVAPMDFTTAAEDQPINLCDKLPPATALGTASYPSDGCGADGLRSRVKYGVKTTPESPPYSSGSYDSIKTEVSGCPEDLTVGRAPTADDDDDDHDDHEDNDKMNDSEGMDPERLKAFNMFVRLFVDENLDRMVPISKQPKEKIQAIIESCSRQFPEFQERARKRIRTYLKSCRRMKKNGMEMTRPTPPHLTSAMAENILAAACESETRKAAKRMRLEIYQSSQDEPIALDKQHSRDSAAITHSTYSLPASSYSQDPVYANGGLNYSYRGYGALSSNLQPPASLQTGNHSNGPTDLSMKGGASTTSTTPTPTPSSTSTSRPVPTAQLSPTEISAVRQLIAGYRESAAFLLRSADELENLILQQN

Experiments:
Experiment in all cases: log2 fold change, soluble protein after heating vs DMSO (PISA); higher = thermal stabilisation; K562 cells, 10 uM, 30 min; active = over 0.2 and 3.5 SD of the protein, either way, in both replicates (recomputed)
saracatinib = compound: CN1CCN(CCOc2cc(OC3CCOCC3)c3c(Nc4c(Cl)ccc5c4OCO5)ncnc3c2)CC1 [saracatinib]
Method in brief: (§1)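 Soluble protein was quantified by TMTpro 16plex LC-MS/MS after channel sums were equalised. It was obtained as the supernatant after 21,000xg for 90 min from pooled aliquots of K562 cells (2×10^6 cells/mL, 10 μM compound, 30 min) heated for 3 min across 48°C-58°C and extracted in PBS with 0.5% NP-40 at 4°C. Thermal stability values are relative to control samples and come from duplicates. They are given as log2 fold changes.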

sotrastaurin = compound: CN1CCN(c2nc(C3=C(c4c[nH]c5ccccc45)C(=O)NC3=O)c3ccccc3n2)CC1 [sotrastaurin]
Method in brief: as §1

Tubastatin A = compound: CN1CCc2c(c3ccccc3n2Cc2ccc(C(=O)NO)cc2)C1 [Tubastatin A]
Method in brief: as §1

[1] = compound: CNC(=O)C1=CC=CC=C1NC2=NC(=NC=C2Cl)NC3=C(C=C(C=C3)N4CCOCC4)OC
Method in brief: as §1

defactinib = compound: CNC(=O)c1ccc(Nc2ncc(C(F)(F)F)c(NCc3nccnc3N(C)S(C)(=O)=O)n2)cc1 [defactinib]
Method in brief: as §1

rucaparib = compound: CNCc1ccc(-c2[nH]c3cc(F)cc4c3c2CCNC4=O)cc1 [rucaparib]
Method in brief: as §1

[2] = compound: CNc1nc(-c2ccc3c(N)n[nH]c3c2)cc(N2C[C@@H](C(=O)NC3CCCCC3)CC[C@H]2C)n1
Method in brief: as §1

encorafenib = compound: COC(=O)N[C@@H](C)CNc1nccc(-c2cn(C(C)C)nc2-c2cc(Cl)cc(NS(C)(=O)=O)c2F)n1 [encorafenib]
Method in brief: as §1

[3] = compound: COC(=O)[C@H](CCSC)NC(=O)C1=C(C=C(C=C1)NC[C@H](CS)N)C2=CC=CC=C2
Method in brief: as §1

[4] = compound: COC1=CC=C(C=C1)CN2C=CC3=C2C=C(C=C3)C(=O)NO
Method in brief: as §1

filanesib = compound: CON(C)C(=O)N1N=C(c2cc(F)ccc2F)S[C@@]1(CCCN)c1ccccc1 [filanesib]
Method in brief: as §1

zotarolimus = compound: CO[C@H]1C[C@@H]2CC[C@@H](C)[C@@](O)(O2)C(=O)C(=O)N2CCCC[C@H]2C(=O)O[C@H]([C@H](C)C[C@@H]2CC[C@H](n3cnnn3)[C@H](OC)C2)CC(=O)[C@H](C)/C=C(\C)[C@@H](O)[C@@H](OC)C(=O)[C@H](C)C[C@H](C)/C=C/C=C/C=C/1C [zotarolimus]
Method in brief: as §1

idasanutlin = compound: COc1cc(C(=O)O)ccc1NC(=O)[C@@H]1N[C@@H](CC(C)(C)C)[C@](C#N)(c2ccc(Cl)cc2F)[C@H]1c1cccc(Cl)c1F [idasanutlin]
Method in brief: as §1

alisertib = compound: COc1cc(Nc2ncc3c(n2)-c2ccc(Cl)cc2C(c2c(F)cccc2OC)=NC3)ccc1C(=O)O [alisertib]
Method in brief: as §1

[5] = compound: COc1cc2nc(-c3cc(F)ccc3O)nc(N[C@@H]3CNC[C@H]3C(C)(C)O)c2cc1OC
Method in brief: as §1

gefitinib = compound: COc1cc2ncnc(Nc3ccc(F)c(Cl)c3)c2cc1OCCCN1CCOCC1 [gefitinib]
Method in brief: as §1

[6] = compound: COc1cccc2cc(-c3nc([C@H]4CC[C@H](C(=O)O)CC4)n4ncnc(N)c34)[nH]c12
Method in brief: as §1

lapatinib = compound: CS(=O)(=O)CCNCc1ccc(-c2ccc3ncnc(Nc4ccc(OCc5cccc(F)c5)c(Cl)c4)c3c2)o1 [lapatinib]
Method in brief: as §1

pictilisib = compound: CS(=O)(=O)N1CCN(Cc2cc3nc(-c4cccc5[nH]ncc45)nc(N4CCOCC4)c3s2)CC1 [pictilisib]
Method in brief: as §1

Measured: log2 fold change

NR2C2AP isoform 2 (UniProt Q86WQ0)
inactive: saracatinib 0.086 | sotrastaurin 0.018 | Tubastatin A 0.099 | [1] 0.027 | defactinib -0.106 | rucaparib -0.031 | [2] 0.073 | encorafenib -0.048 | [3] -0.115 | [4] 0.101 | filanesib 0.01 | zotarolimus -0.014 | idasanutlin -0.062 | alisertib -0.066 | [5] -0.034 | gefitinib -0.01 | [6] 0.093 | lapatinib -0.011 | pictilisib 0.08

NISCH (UniProt Q9Y2I1)
inactive: saracatinib -0.037 | sotrastaurin -0.066 | Tubastatin A -0.022 | [1] -0.141 | defactinib -0.128 | rucaparib -0.041 | [2] -0.072 | encorafenib 0.093 | [3] -0.12 | [4] -0.008 | filanesib -0.029 | zotarolimus -0.022 | idasanutlin -0.015 | alisertib 0.023 | [5] -0.119 | gefitinib -0.014 | [6] 0.106 | lapatinib 0.041 | pictilisib -0.061

NFX1 (UniProt Q12986)
inactive: saracatinib -0.246 | sotrastaurin -0.09 | Tubastatin A -0.001 | [1] 0.014 | defactinib 0.009 | rucaparib 0.269 | [2] -0.237 | encorafenib -0.01 | [3] 0 | [4] -0.152 | filanesib 0.133 | zotarolimus -0.141 | idasanutlin 0.102 | alisertib 0.203 | [5] 0.079 | gefitinib 0.037 | [6] -0.012 | lapatinib 0.112 | pictilisib 0.004

NELFA (UniProt Q9H3P2)
inactive: saracatinib 0.004 | sotrastaurin -0.023 | Tubastatin A 0.216 | [1] 0.078 | defactinib -0.094 | rucaparib 0.261 | [2] -0.014 | encorafenib -0.039 | [3] -0.213 | [4] 0.031 | filanesib 0.035 | zotarolimus -0.084 | idasanutlin -0.117 | alisertib 0.092 | [5] 0.105 | gefitinib 0.36 | [6] 0.017 | lapatinib -0.079 | pictilisib 0.076

NFATC2 (UniProt Q13469)
active: [2] -0.382
inactive: saracatinib -0.128 | sotrastaurin -0.166 | Tubastatin A 0.118 | [1] 0.007 | defactinib -0.14 | rucaparib -0.047 | encorafenib 0.101 | [3] 0.071 | [4] 0.015 | filanesib 0.161 | zotarolimus -0.084 | idasanutlin 0.058 | alisertib 0.147 | [5] -0.036 | gefitinib 0.031 | [6] -0.152 | lapatinib -0.001 | pictilisib -0.029

NHLRC2 (UniProt Q8NBF2)
inactive: saracatinib -0.026 | sotrastaurin 0.039 | Tubastatin A -0.072 | [1] -0.055 | defactinib -0.039 | rucaparib -0.016 | [2] 0.059 | encorafenib -0.045 | [3] 0.146 | [4] -0.084 | filanesib -0.062 | zotarolimus -0.001 | idasanutlin -0.061 | alisertib 0.1 | [5] 0.061 | gefitinib -0.011 | [6] 0.123 | lapatinib -0.057 | pictilisib 0.062

Copied from above (2 entries):
NISCH (UniProt Q9Y2I1)
inactive: saracatinib -0.037 | sotrastaurin -0.066 | Tubastatin A -0.022 | [1] -0.141 | defactinib -0.128 | rucaparib -0.041 | [2] -0.072 | encorafenib 0.093 | [3] -0.12 | [4] -0.008 | filanesib -0.029 | zotarolimus -0.022 | idasanutlin -0.015 | alisertib 0.023 | [5] -0.119 | gefitinib -0.014 | [6] 0.106 | lapatinib 0.041 | pictilisib -0.061

NFX1 (UniProt Q12986)
inactive: saracatinib -0.246 | sotrastaurin -0.09 | Tubastatin A -0.001 | [1] 0.014 | defactinib 0.009 | rucaparib 0.269 | [2] -0.237 | encorafenib -0.01 | [3] 0 | [4] -0.152 | filanesib 0.133 | zotarolimus -0.141 | idasanutlin 0.102 | alisertib 0.203 | [5] 0.079 | gefitinib 0.037 | [6] -0.012 | lapatinib 0.112 | pictilisib 0.004

Further results

NSD1 (UniProt Q96L73)
inactive: saracatinib 0.082 | sotrastaurin -0.054 | [1] 0.008 | rucaparib -0.069 | [2] 0.06 | encorafenib 0.044 | [4] -0.127 | filanesib 0.021 | idasanutlin 0.129 | alisertib -0.084 | gefitinib -0.025 | [6] 0.002 | pictilisib -0.07

NOSIP (UniProt Q9Y314)
inactive: saracatinib -0.045 | sotrastaurin -0.28 | Tubastatin A 0.199 | [1] 0.05 | defactinib -0.199 | rucaparib 0.003 | [2] -0.106 | encorafenib 0.181 | [3] -0.182 | [4] -0.069 | filanesib 0.143 | zotarolimus -0.018 | idasanutlin 0.029 | alisertib 0.166 | [5] 0.174 | gefitinib 0.156 | [6] -0.053 | lapatinib -0.046 | pictilisib -0.067

NRF1 isoform 4 (UniProt Q16656)
active: defactinib -0.34
inactive: saracatinib 0.102 | sotrastaurin -0.045 | Tubastatin A 0.015 | [1] -0.016 | rucaparib -0.11 | [2] -0.061 | encorafenib 0.036 | [3] 0.015 | [4] 0.048 | filanesib -0.054 | zotarolimus 0.098 | idasanutlin 0.03 | alisertib -0.077 | [5] -0.135 | gefitinib 0.03 | [6] 0.019 | lapatinib -0.078 | pictilisib 0.167

NOL4L (UniProt Q96MY1)
inactive: saracatinib -0.122 | sotrastaurin -0.018 | Tubastatin A -0.065 | [1] -0.061 | [2] -0.288 | filanesib 0.104 | gefitinib 0.009
